Assay [1] concerns the target T1, human B7H3 (RnDSystems, 2318-B3-050/CF) (human, UniProt Q5ZPR3 29-461).
T1 construct: Bought antigen, detected with an anti-His HRP antibody, so a His tag is implied
T1 sequence (looked up): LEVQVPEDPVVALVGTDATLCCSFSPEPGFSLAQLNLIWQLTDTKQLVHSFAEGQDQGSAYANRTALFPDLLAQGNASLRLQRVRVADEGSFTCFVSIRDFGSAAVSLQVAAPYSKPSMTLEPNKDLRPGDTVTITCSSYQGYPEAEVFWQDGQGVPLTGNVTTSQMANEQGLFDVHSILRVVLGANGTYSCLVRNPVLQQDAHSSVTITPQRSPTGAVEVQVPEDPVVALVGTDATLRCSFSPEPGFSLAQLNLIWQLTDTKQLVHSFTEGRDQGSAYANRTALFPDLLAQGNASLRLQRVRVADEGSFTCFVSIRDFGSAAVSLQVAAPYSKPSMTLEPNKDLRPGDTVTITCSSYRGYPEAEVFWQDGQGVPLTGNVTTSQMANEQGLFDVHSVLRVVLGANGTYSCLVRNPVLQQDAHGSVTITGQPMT
Described as described in AK-Example 1 (ELISA).

The target of assay [2] is T1, human B7H3 (RnDSystems, 2318-B3-050/CF). Description: ELISA (AK-Example 1); Tab. AK-2 not given. (In general: In an ELISA, binding on a coated surface is turned into a signal by an enzyme label.)

Substitutions are numbered along the chain they refer to. Results are given in words; binding and its absence hold for the method and conditions named. Some binding calls cover weakened binding; strength is not graded here.

B1: TPP-6850 (antibody, human IgG1, kappa, V domains shown)
VH: EVQLVQSGAEVKKPGASVKVSCKASGYTFTIYNVHWIRQAPGQGLEWMGTIFPGNGDTSYNQKFKDRATLTTDKSTKTAYMELRSLRSDDTAVYYCARWDDGNVGFAHWGQGTLVTVSS
VL: DIQMTQSPSSLSASVGDRVTITCRASENINNYLTWFQQKPGKAPKLLVYHAKTLAEGVPSRFSGSGSGTQFTLTISSLQPEDFATYYCQHHYGTPPTFGQGTKLEIKR
Consider B1, for which the binding entry in assay [1] and in assay [2] was “binds” each time.

B2: TPP-6642 (antibody, human IgG1, kappa, V domains shown)
VH: B1 VH with I37V, R67K, A68V, L70M, K74T, K77S, R84S, D89E
VL: B1 VL with P40Q, A43S, K45Q, V48I, Q70D, Q100G, L104V
Take B2: the binding entry in assay [1] and in assay [2] was “binds” in each case.

These data come from patent US20180185510A1, “ANTIBODY DRUG CONJUGATES OF KINESIN SPINDEL PROTEIN (KSP) INHIBITORS WITH ANTI-B7H3-ANTIBODIES” (BAYER PHARMA AKTIENGESELLSCHAFT, priority 2015, published 2018).
